# Values quoted from earlier work, collected in patent publication US20190336599A1 (Eli Lilly and Company, priority 2016, published 2019).
# At least one compound was matched to its structure with a doubt left.
# Test system: ADSC and ECFC co-culture cord formation
# Details: cited from earlier work
smiles,measurement,setting,value
CCN(CC)CCNC(=O)c1c(C)[nH]c(/C=C2\C(=O)Nc3ccc(F)cc32)c1C [Sunitinib],effectiveness in cord formation,established mode,not the established mode
same,IC50,neo-mode,0.038 µM
